{"sequences": {"note": "Amino acid sequences for entries named in this document (tags omitted).", "UniProt Q0JBA9, entry or part of it": "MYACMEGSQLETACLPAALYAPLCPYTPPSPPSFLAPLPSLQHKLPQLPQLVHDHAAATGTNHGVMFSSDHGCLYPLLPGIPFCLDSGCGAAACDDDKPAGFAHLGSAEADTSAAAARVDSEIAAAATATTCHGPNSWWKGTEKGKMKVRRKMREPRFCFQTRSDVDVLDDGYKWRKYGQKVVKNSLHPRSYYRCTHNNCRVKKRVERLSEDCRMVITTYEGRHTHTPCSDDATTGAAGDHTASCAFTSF"}, "source": "paper PMC7819943", "about": "“Rice protein-binding microarrays: a tool to detect cis-acting elements near promoter regions in rice”", "note": "The list shows a part of the results."}
{"target": "OsWRKY34 (Oryza sativa, UniProt Q0JBA9 1-250)", "assay": "protein-binding microarray (RPBM); PBS, 2% BSA, 51.3 ng/ul salmon testes DNA, 50 uM zinc acetate, 200 nM TF, 25 C, 1 h; high values mean tight binding", "conditions": "protein: recombinant; tags: N-terminal polyhistidine and DsRed monomer fusion (pET32a); label: CyDye5-dUTP incorporated in the synthesized complementary strand; 3' TTTTT single-stranded linker to array surface; dsDNA, one strand shown", "outline": "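Transcription factors were each fused at the N-terminus to a polyhistidine tag plus DsRed and expressed in E. coli BL21-CodonPlus before Ni–NTA purification. Binding to a double-stranded custom Agilent array was carried out with 200 nM protein at 25 °C for 1 h in PBS, 2% BSA, salmon testes DNA and 50 µM zinc acetate. The binding signal is per-feature fluorescence intensity, in arbitrary units, on an Axon 4000B scanner.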"}
{"sequence": "GCTTCCATTCGACTCCAGGTTATATCCACCTTTAATTTCTCGGAGTCACCTAGTGCAG", "binding signal": "8770 fluorescence intensity (a.u.)"}
{"sequence": "TCCTCTCGCTAATATATTTCTCCTCGCTCGATCCATCTTCCGGAGTCACCTAGTGCAG", "binding signal": "11600 fluorescence intensity (a.u.)"}
{"sequence": "TTATTCGGCCCGGCCCATTTAAGAGCTCTCGCCCACTTCTCGGAGTCACCTAGTGCAG", "binding signal": "8540 fluorescence intensity (a.u.)"}
{"sequence": "CCTGCTTCTCCTCGTTGTGTCCTTCTTGTACATTCGCAAGCGGAGTCACCTAGTGCAG", "binding signal": "8720 fluorescence intensity (a.u.)"}
{"sequence": "GCCTCCCCTTCGCCCGCTCGCTCCGTCGTTAAGCCAGATCCGGAGTCACCTAGTGCAG", "binding signal": "8240 fluorescence intensity (a.u.)"}
{"sequence": "TGCACAAAGGTTATGCGATATCGACGGTATATTTCCACAACGGAGTCACCTAGTGCAG", "binding signal": "9520 fluorescence intensity (a.u.)"}
{"sequence": "CCACACAATCGCAATATCTCTAACACTCTCATATATTTCTCGGAGTCACCTAGTGCAG", "binding signal": "9030 fluorescence intensity (a.u.)"}
{"sequence": "CACACCACAGCGCGCGCCCGCCCGCCAGCCATCCCGCTGCCGGAGTCACCTAGTGCAG", "binding signal": "8510 fluorescence intensity (a.u.)"}
{"sequence": "ATTGTTCGTTTTATATGAAATTTTTTATAATTAGTATTTTCGGAGTCACCTAGTGCAG", "binding signal": "8410 fluorescence intensity (a.u.)"}
{"sequence": "ATCTCGTCTATGTATCTTCTTATTTTCTCTCCTCTCAGACCGGAGTCACCTAGTGCAG", "binding signal": "8100 fluorescence intensity (a.u.)"}
{"sequence": "CTTCCATTCTTCTCTCCCTTAGGTGCTAGGCGAACAAAATCGGAGTCACCTAGTGCAG", "binding signal": "8460 fluorescence intensity (a.u.)"}
{"sequence": "AAGTAGCCCTTCGACCACGCAATGCCCGACCTCGATCATCCGGAGTCACCTAGTGCAG", "binding signal": "8300 fluorescence intensity (a.u.)"}
{"sequence": "CTTTCTCTAGCTAGCTATCTAGTGGATCTCTTTCCCATCTCGGAGTCACCTAGTGCAG", "binding signal": "9140 fluorescence intensity (a.u.)"}
{"sequence": "TTCCTATAGTGGGGATGGAGGAATAGGGAATATAAGTGATCGGAGTCACCTAGTGCAG", "binding signal": "8380 fluorescence intensity (a.u.)"}
{"sequence": "GTACTGGCACCTATATAGCCACCTTGCTCAAGCATACCAACGGAGTCACCTAGTGCAG", "binding signal": "8220 fluorescence intensity (a.u.)"}
{"sequence": "AGCAGGCCTTCCATCTTCCACTGCACTTGCACTACATATACGGAGTCACCTAGTGCAG", "binding signal": "11000 fluorescence intensity (a.u.)"}
{"sequence": "GCTTACCATGTAGCTTTGTATCCCGCGACTCTTATACAAGCGGAGTCACCTAGTGCAG", "binding signal": "9500 fluorescence intensity (a.u.)"}
{"sequence": "TATACCCTCGCATGATCCTAGCCGCCGGTTTCTCATCCAACGGAGTCACCTAGTGCAG", "binding signal": "10900 fluorescence intensity (a.u.)"}
{"sequence": "TGAGTGAATATTTAACTGGCCATGCTGATCGATCGATATTCGGAGTCACCTAGTGCAG", "binding signal": "8170 fluorescence intensity (a.u.)"}
{"sequence": "TCAACTCTTCGTGGATGCTAATTAACCGGTGTTACTACTCCGGAGTCACCTAGTGCAG", "binding signal": "9070 fluorescence intensity (a.u.)"}
{"sequence": "TTCATGCTCATTCGCGTACCTATTGCCAACCGGACAATGTCGGAGTCACCTAGTGCAG", "binding signal": "10200 fluorescence intensity (a.u.)"}
{"sequence": "CCTCCACCTCCCACGCCGGCCGCAGCCGCGCGCTGCCATCCGGAGTCACCTAGTGCAG", "binding signal": "8410 fluorescence intensity (a.u.)"}
{"sequence": "TTCCCGCACGCGCACATGCTGCTCTAAAAACTCTTCCGCTCGGAGTCACCTAGTGCAG", "binding signal": "8780 fluorescence intensity (a.u.)"}
{"sequence": "CTAACCGTCGCCTTTACCGATTATCCGGTTCTTTACTAACCGGAGTCACCTAGTGCAG", "binding signal": "8150 fluorescence intensity (a.u.)"}
{"sequence": "GGCATCAGATGCGGTTGACTTTAGTTAGATCACTCTGCACCGGAGTCACCTAGTGCAG", "binding signal": "9800 fluorescence intensity (a.u.)"}
{"sequence": "ACACCGCCGCGCCGCATTGGTTTCATCTCCGCTCTCATCTCGGAGTCACCTAGTGCAG", "binding signal": "8570 fluorescence intensity (a.u.)"}
{"sequence": "GTTTTCAAAATATATCTTTGACTATGTTTTTTCTATTATACGGAGTCACCTAGTGCAG", "binding signal": "9360 fluorescence intensity (a.u.)"}
{"sequence": "ACACAATCCCCAACTAAATTTGTTGTATTTTTTTCTCTGACGGAGTCACCTAGTGCAG", "binding signal": "8310 fluorescence intensity (a.u.)"}
{"sequence": "ACTCGTTGACCAAAGGGAGTGGAGTTTGAAAGGGTGGGAGCGGAGTCACCTAGTGCAG", "binding signal": "14600 fluorescence intensity (a.u.)"}
{"sequence": "TGCTTCTTATTAAGAAATATTGTGCAGGTTTTTCGTCTTTCGGAGTCACCTAGTGCAG", "binding signal": "9660 fluorescence intensity (a.u.)"}
{"sequence": "GGTGTGGTGGTGGAGTCGTAAATGCATGACTAAGTGTTATCGGAGTCACCTAGTGCAG", "binding signal": "10900 fluorescence intensity (a.u.)"}
{"sequence": "CCCCTCTCTCTCTATCTCTCTCTCGCCTTTTGCACCATTACGGAGTCACCTAGTGCAG", "binding signal": "9480 fluorescence intensity (a.u.)"}
{"sequence": "ATGACAGCCTTGGTCCATTGACATTTCAGCCATTATATATCGGAGTCACCTAGTGCAG", "binding signal": "8340 fluorescence intensity (a.u.)"}
{"sequence": "TCCTATGACTCGGTTTACTTTGATGATTACATATTTTCCTCGGAGTCACCTAGTGCAG", "binding signal": "9530 fluorescence intensity (a.u.)"}
{"sequence": "TTGTTTCTGGTTTCAATACAAACTTTTTTCCTCTAAACTTCGGAGTCACCTAGTGCAG", "binding signal": "8340 fluorescence intensity (a.u.)"}
{"sequence": "CCCCTGGTCGAATCTCCACTCTCGGGGAGGGGTCTCCACTCGGAGTCACCTAGTGCAG", "binding signal": "9630 fluorescence intensity (a.u.)"}
{"sequence": "GGGAGAACGGCGCGTTCTGGGCCCCACCCTGCAGCGACTCCGGAGTCACCTAGTGCAG", "binding signal": "8340 fluorescence intensity (a.u.)"}
{"sequence": "GCCGCACAGCTTGCCTTCCTCGTCGTCTCGTCTCCTTCAGCGGAGTCACCTAGTGCAG", "binding signal": "8730 fluorescence intensity (a.u.)"}
{"sequence": "ACTTTTTTCTCCTGGGTTAGTATCGTGTTAAAGTTTTTTTCGGAGTCACCTAGTGCAG", "binding signal": "10700 fluorescence intensity (a.u.)"}
{"sequence": "TGGACTTCCTCATCACCAAGCCGCAGCCGCCACCGCCGCTCGGAGTCACCTAGTGCAG", "binding signal": "8040 fluorescence intensity (a.u.)"}
{"sequence": "TGTCATATTTCTCGCATCGATCCTCAACATATGCATGACACGGAGTCACCTAGTGCAG", "binding signal": "9580 fluorescence intensity (a.u.)"}
{"sequence": "GTTTTATTTCGGATTATTTTTTTAATCATTTTACTTTGTACGGAGTCACCTAGTGCAG", "binding signal": "9740 fluorescence intensity (a.u.)"}
